The supplement of paper PMC7661543
± gives the standard deviation of the averaged measurements. The effect of the compound repeats well; differences between the knockouts mostly do not.

Test system: BT-20
Assay: relative cell number vs DMSO control (72 h) (% of DMSO); higher = less growth inhibition (more cells)
Experimental: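 QMAP-Seq: a pool of 5 breast cancer cell lines (ZR-75-1, SKBR3, HCC-38, MDA-MB-231, BT-20), each carrying 12 doxycycline-inducible Cas9 sgRNA perturbations (11 knockouts plus non-targeting sgNT), was treated with compounds for 72 h at four 10-fold doses (10 nM-10 uM or 1 nM-1 uM range). Barcodes were amplified and sequenced, and cell number was interpolated from 293T spike-in standard curves. The result is expressed as % of the median of DMSO wells. Two biological replicates.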

[1] = sgRNA knockout: sgATF3, 1000 nM
[2] = sgRNA knockout: sgATF3, 10000 nM
[3] = sgRNA knockout: sgATF4, 1000 nM
[4] = sgRNA knockout: sgATF4, 10000 nM
[5] = sgRNA knockout: sgATF6, 1000 nM
[6] = sgRNA knockout: sgATF6, 10000 nM
[7] = sgRNA knockout: sgATG7, 1000 nM
[8] = sgRNA knockout: sgATG7, 10000 nM
[9] = sgRNA knockout: sgERN1, 1000 nM
[10] = sgRNA knockout: sgERN1, 10000 nM
[11] = sgRNA knockout: sgHSF1, 1000 nM
[12] = sgRNA knockout: sgHSF1, 10000 nM
[13] = sgRNA knockout: sgHSF2, 1000 nM
[14] = sgRNA knockout: sgHSF2, 10000 nM
[15] = sgRNA knockout: sgKEAP1, 100 nM
[16] = sgRNA knockout: sgKEAP1, 1000 nM
[17] = sgRNA knockout: sgKEAP1, 10000 nM
[18] = sgRNA knockout: sgNFE2L2, 10 nM
[19] = sgRNA knockout: sgNFE2L2, 100 nM
[20] = sgRNA knockout: sgNFE2L2, 1000 nM
[21] = sgRNA knockout: sgNFE2L2, 10000 nM
[22] = sgRNA knockout: sgSLC35F2, 10 nM
[23] = sgRNA knockout: sgSLC35F2, 100 nM
[24] = sgRNA knockout: sgSLC35F2, 1000 nM
[25] = sgRNA knockout: sgSLC35F2, 10000 nM
[26] = sgRNA knockout: sgXBP1, 1000 nM
[27] = sgRNA knockout: sgXBP1, 10000 nM

SMILES: O=c1ncccn1[C@@H]1O[C@H](CO)[C@@H](O)[C@H]1O [Zebularine]
- relative cell number (sgRNA knockout: sgATF3, 10 nM): 115 ± 16
- relative cell number (sgRNA knockout: sgATF3, 100 nM): 93.9 ± 18
- relative cell number [1]: 94.7 ± 8.4
- relative cell number [2]: 119 ± 21
- relative cell number (sgRNA knockout: sgATF4, 10 nM): 115.7 ± 0.81
- relative cell number (sgRNA knockout: sgATF4, 100 nM): 86.6 ± 20
- relative cell number [3]: 95.5 ± 3.7
- relative cell number [4]: 108 ± 5.9
- relative cell number (sgRNA knockout: sgATF6, 10 nM): 104 ± 6
- relative cell number (sgRNA knockout: sgATF6, 100 nM): 100 ± 14
- relative cell number [5]: 99 ± 14
- relative cell number [6]: 106 ± 5.4
- relative cell number (sgRNA knockout: sgATG7, 10 nM): 130 ± 32
- relative cell number (sgRNA knockout: sgATG7, 100 nM): 96.4 ± 27
- relative cell number [7]: 102 ± 19
- relative cell number [8]: 120 ± 9.4
- relative cell number (sgRNA knockout: sgERN1, 10 nM): 103 ± 16
- relative cell number (sgRNA knockout: sgERN1, 100 nM): 104 ± 2.5
- relative cell number [9]: 103 ± 9
- relative cell number [10]: 91 ± 1
- relative cell number (sgRNA knockout: sgHSF1, 10 nM): 131 ± 54
- relative cell number (sgRNA knockout: sgHSF1, 100 nM): 112 ± 21
- relative cell number [11]: 89.1 ± 13
- relative cell number [12]: 107 ± 28
- relative cell number (sgRNA knockout: sgHSF2, 10 nM): 95.1 ± 4.2
- relative cell number (sgRNA knockout: sgHSF2, 100 nM): 93.1 ± 17
- relative cell number [13]: 88.3 ± 26
- relative cell number [14]: 84.7 ± 18
- relative cell number (sgRNA knockout: sgKEAP1, 10 nM): 102 ± 25
- relative cell number [15]: 105 ± 3.7
- relative cell number [16]: 97.6 ± 6.7
- relative cell number [17]: 108 ± 11
- relative cell number [18]: 109 ± 19
- relative cell number [19]: 102 ± 11
- relative cell number [20]: 94.3 ± 18
- relative cell number [21]: 82.9 ± 8.5
- relative cell number [22]: 105 ± 51
- relative cell number [23]: 94.8 ± 14
- relative cell number [24]: 81.8 ± 4.7
- relative cell number [25]: 99.5 ± 16
- relative cell number (sgRNA knockout: sgXBP1, 10 nM): 102 ± 22
- relative cell number (sgRNA knockout: sgXBP1, 100 nM): 102 ± 17
- relative cell number [26]: 88.5 ± 3
- relative cell number [27]: 117 ± 16

SMILES: C[C@@H](Oc1cc(-n2cnc3ccc(CN4CCN(C)CC4)cc32)sc1C(N)=O)c1ccccc1C(F)(F)F
- relative cell number (sgRNA knockout: sgATF3, 10 nM): 59.2 ± 11
- relative cell number (sgRNA knockout: sgATF3, 100 nM): 28.1 ± 8.6
- relative cell number [1]: 34.2 ± 2.2
- relative cell number [2]: 37 ± 3.9
- relative cell number (sgRNA knockout: sgATF4, 10 nM): 62.5 ± 12
- relative cell number (sgRNA knockout: sgATF4, 100 nM): 31.5 ± 4.7
- relative cell number [3]: 31 ± 2.5
- relative cell number [4]: 27 ± 3.9
- relative cell number (sgRNA knockout: sgATF6, 10 nM): 65.4 ± 6.5
- relative cell number (sgRNA knockout: sgATF6, 100 nM): 21.9 ± 6
- relative cell number [5]: 26.9 ± 0.69
- relative cell number [6]: 27.6 ± 3.6
- relative cell number (sgRNA knockout: sgATG7, 10 nM): 62.6 ± 2.1
- relative cell number (sgRNA knockout: sgATG7, 100 nM): 22.8 ± 0.74
- relative cell number [7]: 30.8 ± 2.6
- relative cell number [8]: 35.8 ± 0.46
- relative cell number (sgRNA knockout: sgERN1, 10 nM): 52.9 ± 10
- relative cell number (sgRNA knockout: sgERN1, 100 nM): 22.1 ± 5.6
- relative cell number [9]: 29.5 ± 12
- relative cell number [10]: 31.5 ± 14
- relative cell number (sgRNA knockout: sgHSF1, 10 nM): 56.7 ± 7
- relative cell number (sgRNA knockout: sgHSF1, 100 nM): 24.1 ± 3.8
- relative cell number [11]: 31.4 ± 7.8
- relative cell number [12]: 34.8 ± 8.6
- relative cell number (sgRNA knockout: sgHSF2, 10 nM): 53.8 ± 3.6
- relative cell number (sgRNA knockout: sgHSF2, 100 nM): 25.7 ± 7.4
- relative cell number [13]: 34 ± 5.7
- relative cell number [14]: 34.8 ± 14
- relative cell number (sgRNA knockout: sgKEAP1, 10 nM): 55.6 ± 7.9
- relative cell number [15]: 21.9 ± 1.9
- relative cell number [16]: 29 ± 5.1
- relative cell number [17]: 34.6 ± 3.4
- relative cell number [18]: 64.3 ± 8.3
- relative cell number [19]: 35.7 ± 4.9
- relative cell number [20]: 32 ± 6.3
- relative cell number [21]: 36.4 ± 7.9
- relative cell number [22]: 54.1 ± 8.9
- relative cell number [23]: 28 ± 4.2
- relative cell number [24]: 31.6 ± 1.2
- relative cell number [25]: 36.8 ± 15
- relative cell number (sgRNA knockout: sgXBP1, 10 nM): 68.4 ± 7.2
- relative cell number (sgRNA knockout: sgXBP1, 100 nM): 28.5 ± 1.3
- relative cell number [26]: 31.1 ± 1.4
- relative cell number [27]: 27 ± 7.6

SMILES: CNC(=O)c1cc(Oc2ccc(NC(=O)Nc3ccc(Cl)c(C(F)(F)F)c3)c(F)c2)ccn1 [Regorafenib]
- relative cell number (sgRNA knockout: sgATF3, 10 nM): 95.3 ± 14
- relative cell number (sgRNA knockout: sgATF3, 100 nM): 100 ± 11
- relative cell number [1]: 101 ± 9.1
- relative cell number [2]: 46.1 ± 2.7
- relative cell number (sgRNA knockout: sgATF4, 10 nM): 119 ± 14
- relative cell number (sgRNA knockout: sgATF4, 100 nM): 103 ± 7.7
- relative cell number [3]: 100 ± 26
- relative cell number [4]: 52.1 ± 1.3
- relative cell number (sgRNA knockout: sgATF6, 10 nM): 101 ± 2.4
- relative cell number (sgRNA knockout: sgATF6, 100 nM): 100 ± 11
- relative cell number [5]: 98.3 ± 28
- relative cell number [6]: 45.1 ± 1.2
- relative cell number (sgRNA knockout: sgATG7, 10 nM): 99.5 ± 6.4
- relative cell number (sgRNA knockout: sgATG7, 100 nM): 92.3 ± 8.3
- relative cell number [7]: 119 ± 18
- relative cell number [8]: 47.2 ± 8.3
- relative cell number (sgRNA knockout: sgERN1, 10 nM): 116 ± 7.1
- relative cell number (sgRNA knockout: sgERN1, 100 nM): 105 ± 1.1
- relative cell number [9]: 96.7 ± 16
- relative cell number [10]: 51.6 ± 4.8
- relative cell number (sgRNA knockout: sgHSF1, 10 nM): 94.9 ± 1.8
- relative cell number (sgRNA knockout: sgHSF1, 100 nM): 108 ± 1.2
- relative cell number [11]: 85.8 ± 23
- relative cell number [12]: 46.3 ± 12
- relative cell number (sgRNA knockout: sgHSF2, 10 nM): 93.2 ± 7.7
- relative cell number (sgRNA knockout: sgHSF2, 100 nM): 108 ± 20
- relative cell number [13]: 117 ± 25
- relative cell number [14]: 46 ± 1.4
- relative cell number (sgRNA knockout: sgKEAP1, 10 nM): 89.1 ± 6.2
- relative cell number [15]: 104 ± 9.4
- relative cell number [16]: 99.8 ± 4.2
- relative cell number [17]: 42.1 ± 12
- relative cell number [18]: 108 ± 7.4
- relative cell number [19]: 128 ± 12
- relative cell number [20]: 121 ± 26
- relative cell number [21]: 47.4 ± 1.2
- relative cell number [22]: 118 ± 7.7
- relative cell number [23]: 106 ± 4.6
- relative cell number [24]: 98.8 ± 12
- relative cell number [25]: 47.9 ± 3.1
- relative cell number (sgRNA knockout: sgXBP1, 10 nM): 95.2 ± 3.9
- relative cell number (sgRNA knockout: sgXBP1, 100 nM): 112 ± 9.6
- relative cell number [26]: 102 ± 12
- relative cell number [27]: 45.9 ± 7

SMILES: COCC[n+]1c2c(n(Cc3cnccn3)c1C)C(=O)c1ccccc1C2=O [YM155]
- relative cell number (sgRNA knockout: sgATF3, 1 nM): 91.6 ± 7.2
- relative cell number (sgRNA knockout: sgATF3, 10 nM): 52.4 ± 7.5
- relative cell number (sgRNA knockout: sgATF3, 100 nM): 5.27 ± 0.67
- relative cell number [1]: 6.39 ± 3.7
- relative cell number (sgRNA knockout: sgATF4, 1 nM): 91.1 ± 3.5
- relative cell number (sgRNA knockout: sgATF4, 10 nM): 46.6 ± 2.9
- relative cell number (sgRNA knockout: sgATF4, 100 nM): 6.44 ± 2.2
- relative cell number [3]: 4.63 ± 1.5
- relative cell number (sgRNA knockout: sgATF6, 1 nM): 96 ± 4.2
- relative cell number (sgRNA knockout: sgATF6, 10 nM): 47.7 ± 2.9
- relative cell number (sgRNA knockout: sgATF6, 100 nM): 8.25 ± 0.29
- relative cell number [5]: 7.61 ± 4.9
- relative cell number (sgRNA knockout: sgATG7, 1 nM): 97.7 ± 4.5
- relative cell number (sgRNA knockout: sgATG7, 10 nM): 44 ± 11
- relative cell number (sgRNA knockout: sgATG7, 100 nM): 7.25 ± 1.3
- relative cell number [7]: 6.09 ± 2.9
- relative cell number (sgRNA knockout: sgERN1, 1 nM): 93.3 ± 1.8
- relative cell number (sgRNA knockout: sgERN1, 10 nM): 41.6 ± 2.9
- relative cell number (sgRNA knockout: sgERN1, 100 nM): 7.08 ± 0.69
- relative cell number [9]: 7.74 ± 4.9
- relative cell number (sgRNA knockout: sgHSF1, 1 nM): 87.9 ± 2.3
- relative cell number (sgRNA knockout: sgHSF1, 10 nM): 43.1 ± 6
- relative cell number (sgRNA knockout: sgHSF1, 100 nM): 4.67 ± 0.75
- relative cell number [11]: 4.37 ± 3.1
- relative cell number (sgRNA knockout: sgHSF2, 1 nM): 109 ± 5.2
- relative cell number (sgRNA knockout: sgHSF2, 10 nM): 53.3 ± 2
- relative cell number (sgRNA knockout: sgHSF2, 100 nM): 6.76 ± 2.1
- relative cell number [13]: 4.51 ± 1.8
- relative cell number (sgRNA knockout: sgKEAP1, 1 nM): 89.4 ± 9.4
- relative cell number (sgRNA knockout: sgKEAP1, 10 nM): 59.9 ± 6.3
- relative cell number [15]: 8.56 ± 0.89
- relative cell number [16]: 5.72 ± 1.6
- relative cell number (sgRNA knockout: sgNFE2L2, 1 nM): 90.7 ± 20
- relative cell number [18]: 47.8 ± 4.6
- relative cell number [19]: 4.96 ± 1.1
- relative cell number [20]: 4.15 ± 1.1
- relative cell number (sgRNA knockout: sgSLC35F2, 1 nM): 94.2 ± 2.6
- relative cell number [22]: 85 ± 18
- relative cell number [23]: 26 ± 6
- relative cell number [24]: 5.25 ± 3
- relative cell number (sgRNA knockout: sgXBP1, 1 nM): 95.9 ± 7.4
- relative cell number (sgRNA knockout: sgXBP1, 10 nM): 49.6 ± 4
- relative cell number (sgRNA knockout: sgXBP1, 100 nM): 4.85 ± 0.5
- relative cell number [26]: 7.3 ± 2.8
